Source: patent US12527774B2, “Estrogen-related receptor alpha modulators” (LEAD PHARMA HOLDING B.V., priority 2019, dated 2026)
Structures were worked out from names or drawings and are uncertain.

System: B16F10 melanoma
Test: B16F10 Melanoma Syngeneic Mouse Model
Conditions: 30 mpk p.o., q.d., C57BL/6 mice; for Tumor Growth Inhibition (%): Day 13
Method: B16F10 Melanoma Syngeneic Mouse Model
Examples inhibitors 100, 191, 192, 194 and 196 were tested for their ability to inhibit tumor growth in a B16F10 melanoma syngeneic mouse model.
Cell line and tumor model: B16F10 melanoma cell line derived allograft model in C57BL/6 mice.
Mouse B16F10 melanoma cells were sourced from American Type Culture Collection (ATCC), USA. Cells were grown in DMEM (Invitrogen, Catalogue No. 31600-034) supplemented with 10% FBS (Invitrogen, Catalogue No. 10438-026), and 1% penicillin streptomycin (Thermo Fisher Scientific, Catalogue No. 15140-122). To establish allografts, the cells were harvested by trypsinization when they reach around 70 to 80% confluence and 0.1 million B16F10 cells were suspended in 50 μl of serum free medium and mixed at 1:1 ratio with matrigel before implanting subcutaneously into the dorsal right flank of mice using a 1 mL BD syringe attached to a 24-gauge needle.
B16F10 tumor grafts were measured after 5 days of cell inoculation once they became palpable. When the average tumor volume reached around 58 mm^3, animals were dosed after randomization into different treatment groups keeping tumor volume and number of animals in such a way so that the average tumor volume of each group remained same across the groups. Dosing was performed on a per kilogram weight basis, by mouth (per os, p.o.) once a day (quaque die, q.d).
Tumor dimensions—length (I) and breadth (b)—were measured by caliper on the day of animal randomization based on tumor volume (Day 1) and thrice weekly thereafter until study termination. Tumor volumes were calculated using the formula b^2*I*0.52 where l=length, b=breadth (Dusan Djokovic et al., BMC Cancer, 2010, 10:641). Tumor growth inhibition was calculated after normalizing the tumor volume on a given day to that on Day 1.
Test items administration was started when tumor volume reached an average of 58 mm^3.
Administration of test items was carried out until Day 14 and measurement of tumor volume was carried out until Day 13 for computing percent tumor growth inhibition (TGI).

Row | SMILES | Tumor Volume (mm^3) Day 13 | Tumor Growth Inhibition (%)
1 | COc1cc([C@@H]2CC(=O)Nc3n[nH]cc32)ccc1COc1ccc(C(F)(F)F)cc1C(F)(F)F | 518 ± 62 mm^3 | 74%
2 | COc1cc([C@H]2CC(=O)Nc3n[nH]cc32)ccc1COc1ccc(C(F)(F)F)cc1C(F)(F)F | 552 ± 91 mm^3 | 72%
